Test results: PubChem BioAssay AID624156 (Broad Institute, 2012)
Out of some 46,000 compounds screened, about 900 (2%) were called active. The inconclusive results got no clear call from the source; some entries with a clear call stand among them for comparison. No stated cut-off is given here; in the data, active means ROS induction above about 79% (passing the limit was not always enough); inconclusive means no clear call, values can overlap the other calls.

Test: ROS inducers in U2OS cancer cells, primary screen, cell-based, H2DCF-DA fluorescence (AID 624156);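 further: 0% = DMSO vehicle median and 100% = reference compound median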
Settings: at 10 µM, hits give high values
In the case of C[C@H]1CN([C@@H](C)CO)C(=O)Cc2cc(NS(=O)(=O)c3cn(C)cn3)ccc2O[C@H]1CN(C)Cc1ccc(Oc2ccccc2)cc1, the ROS induction (% of piperlongumine) is reported as active: 88.6%.
With Cc1cc(/C=C(/C#N)S(C)(=O)=O)c2c(C)ccc(C(C)C)cc1-2 the ROS induction (% of piperlongumine) was active: 85.4%.
For C[C@H](CO)N1C[C@H](C)[C@@H](CN(C)Cc2ccc(Oc3ccccc3)cc2)Oc2ccc(NS(=O)(=O)c3cccs3)cc2C1=O, the ROS induction (% of piperlongumine) was active: 93.2%.
With CCC(=O)c1cc2ccccc2oc1=O the ROS induction (% of piperlongumine) was inactive: -13.1%.
In the case of C[C@@H]1CCCCO[C@@H](CN(C)S(=O)(=O)c2ccc(Cl)cc2)[C@@H](C)CN([C@H](C)CO)C(=O)c2cc(NS(=O)(=O)c3ccc(Cl)cc3)ccc2O1, the ROS induction (% of piperlongumine) is reported as inconclusive: 111%.
In the case of Cc1ccc(S(=O)(=O)N(C)C[C@H]2Oc3ccc(NC(=O)Cc4cn(C)c5ccccc45)cc3CC(=O)N([C@H](C)CO)C[C@H]2C)cc1, the ROS induction (% of piperlongumine) is reported as inconclusive: 80.1%.
For C[C@@H]1CN([C@H](C)CO)C(=O)c2cccc(NC(=O)Nc3ccc(F)cc3)c2O[C@H]1CN(C)Cc1ccc2c(c1)OCO2, the ROS induction (% of piperlongumine) was active: 86.7%.
For Cn1c(SCC(=O)Nc2ccc(Cl)cc2Cl)nc2ccccc2c1=O, the ROS induction (% of piperlongumine) was inconclusive: 80.5%.
In the case of C[C@@H]1CN([C@@H](C)CO)C(=O)c2cc(NC(=O)C3CCCCC3)ccc2O[C@@H]1CN(C)Cc1ccc(C(F)(F)F)cc1, the ROS induction (% of piperlongumine) is reported as inconclusive: 77.1%.
In the case of C[C@@H]1CN([C@H](C)CO)C(=O)Cc2cc(NC(=O)CCCCCC(=O)Nc3ccccc3N)ccc2O[C@H]1CN(C)Cc1ccncc1, the ROS induction (% of piperlongumine) is reported as inactive: 23.6%.
For COc1cc(NC(=O)COc2cccc(C)c2C)ccc1NC(=O)c1ccccc1Cl, the ROS induction (% of piperlongumine) was inactive: -1.81%.
In the case of Cc1cc(C(=O)Nc2cccc3c2O[C@@H](CN(C)Cc2ccc(-c4ccccc4)cc2)[C@@H](C)CN([C@@H](C)CO)C3=O)n(C)n1, the ROS induction (% of piperlongumine) is reported as inconclusive: 75.4%.
With C[C@H](CO)N1C[C@H](C)[C@@H](CN(C)Cc2ccccc2)Oc2ccc(NC(=O)Cc3cn(C)c4ccccc34)cc2C1=O the ROS induction (% of piperlongumine) was inconclusive: 76.1%.
In the case of COc1ccc(C(=O)NCC(=O)Nc2cc(OC)ccc2OC)cc1, the ROS induction (% of piperlongumine) is reported as inconclusive: 152%.
With C[C@H](CO)N1C[C@H](C)[C@H](CN(C)C(=O)NC2CCCCC2)Oc2ccc(NS(=O)(=O)c3ccc(Cl)cc3)cc2C1=O the ROS induction (% of piperlongumine) was inconclusive: 176%.
For C[C@@H]1CCCCO[C@@H](CN(C)Cc2ccc(C(F)(F)F)cc2)[C@@H](C)CN([C@H](C)CO)C(=O)c2cc(NC(=O)c3ccncc3)ccc2O1, the ROS induction (% of piperlongumine) was active: 98%.
With CCn1c(=O)c2c(n3c(SCC(N)=O)nnc13)-c1ccccc1CC21CCCCC1 the ROS induction (% of piperlongumine) was inconclusive: 78.8%.
In the case of O=C(CC(c1ccccc1)c1ccccc1)Nc1ccc(Cl)cc1, the ROS induction (% of piperlongumine) is reported as inconclusive: 76.1%.
In the case of C[C@H](CO)N1C[C@H](C)[C@H](CN(C)Cc2ccc(-c3ccccc3)cc2)Oc2ccc(NC(=O)Nc3ccc(C(F)(F)F)cc3)cc2C1=O, the ROS induction (% of piperlongumine) is reported as inconclusive: 178%.
With Cc1ccc([N+](=O)[O-])cc1N(CC(=O)Nc1ccc(I)cc1)S(C)(=O)=O the ROS induction (% of piperlongumine) was inactive: 6.72%.
For C/C=C(/C)C(=O)O[C@H]1C=C(CO)C(=O)[C@H](OC(=O)/C(C)=C/CO)[C@H]1C(C)C, the ROS induction (% of piperlongumine) was active: 87%.
With CSc1ccc(C(Nc2ccccn2)c2cc(Cl)c3cccnc3c2O)cc1 (stereo unspecified) the ROS induction (% of piperlongumine) was inconclusive: 101%.
For COc1ccc(-n2c(SCC(=O)c3ccc(Cl)cc3)nc3ccccc3c2=O)cc1, the ROS induction (% of piperlongumine) was inactive: 3.7%.
With O=C1C(Nc2ccccc2)=CC(=O)c2ncccc21 the ROS induction (% of piperlongumine) was inconclusive: 81.6%.
In the case of C[C@H]1CN([C@@H](C)CO)C(=O)c2cc(NS(=O)(=O)c3cccs3)ccc2O[C@@H]1CN(C)S(=O)(=O)c1cccs1, the ROS induction (% of piperlongumine) is reported as inconclusive: 232%.
For O=C(Nc1cccc(F)c1)C1CCN(c2ncnc3c2sc2cccc(F)c23)CC1, the ROS induction (% of piperlongumine) was active: 111%.
For C[C@H]1CN([C@@H](C)CO)C(=O)c2cc(NS(=O)(=O)c3ccc(Cl)cc3)ccc2O[C@H]1CN(C)Cc1ccc(Oc2ccccc2)cc1, the ROS induction (% of piperlongumine) was inconclusive: 605%.
In the case of COc1ccc(NC(=O)Nc2ccc3c(c2)C(=O)N([C@H](C)CO)C[C@@H](C)[C@@H](CN(C)S(=O)(=O)c2ccc(C)cc2)O3)cc1, the ROS induction (% of piperlongumine) is reported as inconclusive: 147%.
With CC(=O)c1cccc(NC(=O)CN(C2CCCCC2)S(C)(=O)=O)c1 the ROS induction (% of piperlongumine) was inconclusive: 83.6%.
In the case of COc1cc(/C=N/n2c(C)nc3c(ncn3-c3ccccc3)c2=O)cc(OC)c1OC, the ROS induction (% of piperlongumine) is reported as inconclusive: 80.2%.
In the case of C[C@H](CO)N1C[C@H](C)[C@@H](CN(C)Cc2ccc(Oc3ccccc3)cc2)Oc2ccc(NC(=O)C3CCCCC3)cc2C1=O, the ROS induction (% of piperlongumine) is reported as active: 83.8%.
With COc1cc(-c2noc(-c3c(-c4ccccc4Cl)noc3C)n2)cc(OC)c1OC the ROS induction (% of piperlongumine) was active: 117%.
In the case of C[C@@H]1CN([C@@H](C)CO)C(=O)c2cc(NS(=O)(=O)c3ccc(Cl)cc3)ccc2O[C@H]1CN(C)Cc1ccc(-c2ccccc2)cc1, the ROS induction (% of piperlongumine) is reported as inconclusive: 80.8%.
With C[C@@H]1CN([C@H](C)CO)C(=O)c2cccc(NC(=O)Nc3cccc4ccccc34)c2O[C@H]1CN(C)S(=O)(=O)c1ccc(Cl)cc1 the ROS induction (% of piperlongumine) was inconclusive: 477%.
With CC(=O)O[C@@H]1CC2C(C)(C)[C@H](O)C[C@H](O)[C@]2(C)C2CC[C@@]3(C)[C@H](c4ccoc4)OC(=O)[C@H]4O[C@]43[C@@]21C (stereo partly specified) the ROS induction (% of piperlongumine) was inactive: 64.5%.
In the case of Cc1nc(-c2ccccc2)sc1C(=O)C1C(=O)C(=O)N(CCCN2CCOCC2)C1c1cccs1 (stereo unspecified), the ROS induction (% of piperlongumine) is reported as active: 115%.
With Cn1c(Sc2c3c(nc4ncnn24)CCC3)nnc1-c1ccccc1 the ROS induction (% of piperlongumine) was inconclusive: 96.6%.
For Cc1nn2c(-c3cccc(NC(=O)CSc4nc5ccccc5o4)c3)nnc2c2ccccc12, the ROS induction (% of piperlongumine) was inconclusive: 112%.
For C[C@@H]1CCCCO[C@@H](CN(C)Cc2ccc(C(=O)Nc3ccccc3N)cc2)[C@@H](C)CN([C@H](C)CO)C(=O)c2cc(NS(=O)(=O)c3ccc(F)cc3)ccc2O1, the ROS induction (% of piperlongumine) was inconclusive: 91.6%.
For CC(C)NC(=O)Nc1cccc2c1O[C@H](CN(C)C(=O)Nc1ccccc1)[C@@H](C)CN([C@@H](C)CO)C2=O, the ROS induction (% of piperlongumine) was inconclusive: 80.9%.
In the case of C[C@H]1CN([C@@H](C)CO)C(=O)c2cccc(NS(=O)(=O)c3cccs3)c2O[C@@H]1CN(C)Cc1ccc(Oc2ccccc2)cc1, the ROS induction (% of piperlongumine) is reported as inconclusive: 89.6%.
